# Test results: the supplement of paper PMC8728848
# The other results are listed elsewhere or left out.
# B1: CD23 (Homo sapiens) (protein)
# chain: MELQVSSGFVCNTCPEKWINFQRKCYYFGKGTKQWVHARYACDDMEGQLVSIHSPEEQDFLTKRASHTGSWIGLRNLDLKGEFIWVDGSHVDYSNWAPGEPTSRSQSEDCVMMRGSGRWNDAFCDRKLGAWVCDRLATCTPPASEGSAESMGPDSRPDPDGRLPTPSAPLHS
# Key:
# Test in all cases: glycan array binding signal (z-score within array); higher = stronger binding
# Settings in all cases: glycan notation: IUPAC condensed, linker removed; mutation: H213R,G256S
# [1] = molecular target: GlcNAc(b1-2)Gal(b1-3)GalNAc
# Outline: (§1)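 The binding signal is a Z-score computed within each array. Data were drawn from 3228 arrays in the Consortium for Functional Glycomics database, restricted to those with a known protein sequence. Scores were averaged over arrays of the same protein sequence at different concentrations or buffers, and over linkers, and negative values can be taken as non-binding.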
# [2] = molecular target: GlcNAc(b1-2)Man(a1-3)[GlcNAc(b1-2)Man(a1-6)]Man(b1-4)GlcNAc(b1-4)GlcNAc
# Outline: as §1
# GlcNAc(b1-3)Gal = molecular target: GlcNAc(b1-3)Gal
# Outline: as §1
# [3] = molecular target: GlcNAc(b1-3)Gal(b1-3)GalNAc
# Outline: as §1
# GlcNAc(b1-3)Gal(b1-4)Glc = molecular target: GlcNAc(b1-3)Gal(b1-4)Glc
# Outline: as §1
# [4] = molecular target: GlcNAc(b1-3)Gal(b1-4)GlcNAc
# Outline: as §1
# [5] = molecular target: GlcNAc(b1-3)Gal(b1-4)GlcNAc(b1-3)Gal(b1-4)GlcNAc
# Outline: as §1
# GlcNAc(b1-3)GalNAc = molecular target: GlcNAc(b1-3)GalNAc
# Outline: as §1
# [6] = molecular target: GlcNAc(b1-3)[GlcNAc(b1-4)][GlcNAc(b1-6)]GlcNAc
# Outline: as §1
# [7] = molecular target: GlcNAc(b1-3)[GlcNAc(b1-6)]Gal(b1-4)GlcNAc
# Outline: as §1
# [8] = molecular target: GlcNAc(b1-3)[GlcNAc(b1-6)]GalNAc
# Outline: as §1
# [9] = molecular target: GlcNAc(b1-4)Gal(b1-4)GlcNAc
# Outline: as §1
# [10] = molecular target: GlcNAc(b1-4)GlcNAc(b1-4)GlcNAc
# Outline: as §1
# [11] = molecular target: GlcNAc(b1-4)GlcNAc(b1-4)GlcNAc(b1-4)GlcNAc(b1-4)GlcNAc
# Outline: as §1
# [12] = molecular target: GlcNAc(b1-4)GlcNAc(b1-4)GlcNAc(b1-4)GlcNAc(b1-4)GlcNAc(b1-4)GlcNAc
# Outline: as §1
# [13] = molecular target: GlcNAc(b1-4)[GlcNAc(b1-6)]GalNAc
# Outline: as §1
# [14] = molecular target: GlcNAc(b1-6)Gal(b1-4)GlcNAc
# Outline: as §1
# GlcNAc(b1-6)GalNAc = molecular target: GlcNAc(b1-6)GalNAc
# Outline: as §1
# Kdn(a2-3)Gal(b1-3)GlcNAc = molecular target: Kdn(a2-3)Gal(b1-3)GlcNAc
# Outline: as §1
# Kdn(a2-3)Gal(b1-4)GlcNAc = molecular target: Kdn(a2-3)Gal(b1-4)GlcNAc
# Outline: as §1
# [15] = molecular target: Man(a1-2)Man(a1-2)Man(a1-3)Man
# Outline: as §1
# [16] = molecular target: Man(a1-2)Man(a1-2)Man(a1-6)[Man(a1-3)]Man
# Outline: as §1
# Man(a1-2)Man(a1-3)Man = molecular target: Man(a1-2)Man(a1-3)Man
# Outline: as §1
# [17] = molecular target: Man(a1-2)Man(a1-3)[Man(a1-2)Man(a1-6)]Man
# Outline: as §1
# [18] = molecular target: Man(a1-2)Man(a1-3)[Man(a1-2)Man(a1-6)]Man(a1-6)[Man(a1-2)Man(a1-2)Man(a1-3)]Man(b1-4)GlcNAc(b1-4)GlcNAc
# Outline: as §1
# [19] = molecular target: Man(a1-2)Man(a1-3)[Man(a1-2)Man(a1-6)]Man(a1-6)[Man(a1-3)[Man(a1-6)]Man(a1-6)]Man(b1-4)GlcNAc(b1-4)GlcNAc
# Outline: as §1
# [20] = molecular target: Man(a1-2)Man(a1-3)[Man(a1-6)]Man(a1-6)[Man(a1-2)Man(a1-3)]Man(b1-4)GlcNAc(b1-4)GlcNAc
# Outline: as §1
# [21] = molecular target: Man(a1-2)Man(a1-6)[Man(a1-3)]Man(a1-6)[Man(a1-2)Man(a1-2)Man(a1-3)]Man(b1-4)GlcNAc(b1-4)GlcNAc
# Outline: as §1
# Man(a1-3)[Man(a1-6)]Man = molecular target: Man(a1-3)[Man(a1-6)]Man
# Outline: as §1
# [22] = molecular target: Man(a1-3)[Man(a1-6)]Man(a1-6)[Man(a1-3)]Man(b1-4)GlcNAc(b1-4)GlcNAc
# Outline: as §1
# [23] = molecular target: Man(a1-3)[Man(a1-6)]Man(b1-4)GlcNAc(b1-4)GlcNAc
# Outline: as §1
# Man(b1-4)GlcNAc = molecular target: Man(b1-4)GlcNAc
# Outline: as §1
# Neu5Ac(a2-3)Gal = molecular target: Neu5Ac(a2-3)Gal
# Outline: as §1
# [24] = molecular target: Neu5Ac(a2-3)Gal(b1-3)GalNAc
# Outline: as §1
# [25] = molecular target: Neu5Ac(a2-3)Gal(b1-3)GalNAc(b1-3)Gal(a1-4)Gal(b1-4)Glc
# Outline: as §1
# [26] = molecular target: Neu5Ac(a2-3)Gal(b1-3)GalNAc(b1-3)Gal(b1-4)GlcNAc
# Outline: as §1
# [27] = molecular target: Neu5Ac(a2-3)Gal(b1-3)GalNAc(b1-4)[Neu5Ac(a2-3)]Gal(b1-4)Glc
# Outline: as §1
# [28] = molecular target: Neu5Ac(a2-3)Gal(b1-3)GalNAc6S
# Outline: as §1
# [29] = molecular target: Neu5Ac(a2-3)Gal(b1-3)GlcNAc
# Outline: as §1
# [30] = molecular target: Neu5Ac(a2-3)Gal(b1-3)GlcNAc(b1-3)Gal(b1-3)GlcNAc
# Outline: as §1
# [31] = molecular target: Neu5Ac(a2-3)Gal(b1-3)GlcNAc6S
# Outline: as §1
# [32] = molecular target: Neu5Ac(a2-3)Gal(b1-3)[Fuc(a1-4)]GlcNAc
# Outline: as §1
# [33] = molecular target: Neu5Ac(a2-3)Gal(b1-3)[Fuc(a1-4)]GlcNAc(b1-3)Gal(b1-4)[Fuc(a1-3)]GlcNAc
# Outline: as §1
# [34] = molecular target: Neu5Ac(a2-3)Gal(b1-3)[Neu5Ac(a2-3)Gal(b1-4)]GlcNAc
# Outline: as §1
# [35] = molecular target: Neu5Ac(a2-3)Gal(b1-3)[Neu5Ac(a2-6)]GalNAc
# Outline: as §1
binder,measurement,setting,value
B1,glycan array binding signal (z-score),[1],-0.036
same,glycan array binding signal (z-score),[2],-0.07
same,glycan array binding signal (z-score),GlcNAc(b1-3)Gal,-0.107
same,glycan array binding signal (z-score),[3],0.679
same,glycan array binding signal (z-score),GlcNAc(b1-3)Gal(b1-4)Glc,-0.551
same,glycan array binding signal (z-score),[4],-0.235
same,glycan array binding signal (z-score),[5],-0.36
same,glycan array binding signal (z-score),GlcNAc(b1-3)GalNAc,0.052
same,glycan array binding signal (z-score),[6],0.277
same,glycan array binding signal (z-score),[7],-0.334
same,glycan array binding signal (z-score),[8],-0.403
same,glycan array binding signal (z-score),[9],-0.015
same,glycan array binding signal (z-score),[10],-0.43
same,glycan array binding signal (z-score),[11],0.095
same,glycan array binding signal (z-score),[12],-0.318
same,glycan array binding signal (z-score),[13],0.011
same,glycan array binding signal (z-score),[14],-0.195
same,glycan array binding signal (z-score),GlcNAc(b1-6)GalNAc,-0.3
same,glycan array binding signal (z-score),Kdn(a2-3)Gal(b1-3)GlcNAc,-0.218
same,glycan array binding signal (z-score),Kdn(a2-3)Gal(b1-4)GlcNAc,-0.386
same,glycan array binding signal (z-score),[15],-0.197
same,glycan array binding signal (z-score),[16],-0.249
same,glycan array binding signal (z-score),Man(a1-2)Man(a1-3)Man,-0.188
same,glycan array binding signal (z-score),[17],0.012
same,glycan array binding signal (z-score),[18],0.376
same,glycan array binding signal (z-score),[19],0.286
same,glycan array binding signal (z-score),[20],0.052
same,glycan array binding signal (z-score),[21],-0.209
same,glycan array binding signal (z-score),Man(a1-3)[Man(a1-6)]Man,-0.181
same,glycan array binding signal (z-score),[22],-0.063
same,glycan array binding signal (z-score),[23],-0.791
same,glycan array binding signal (z-score),Man(b1-4)GlcNAc,-0.401
same,glycan array binding signal (z-score),Neu5Ac(a2-3)Gal,0.147
same,glycan array binding signal (z-score),[24],-0.283
same,glycan array binding signal (z-score),[25],-0.401
same,glycan array binding signal (z-score),[26],-0.047
same,glycan array binding signal (z-score),[27],-0.497
same,glycan array binding signal (z-score),[28],-0.138
same,glycan array binding signal (z-score),[29],-0.322
same,glycan array binding signal (z-score),[30],0.196
same,glycan array binding signal (z-score),[31],-0.362
same,glycan array binding signal (z-score),[32],-0.068
same,glycan array binding signal (z-score),[33],-0.341
same,glycan array binding signal (z-score),[34],-0.301
same,glycan array binding signal (z-score),[35],-0.178

# An excerpt from the list above, for reference:
binder,measurement,setting,value
B1,glycan array binding signal (z-score),[24],-0.283
same,glycan array binding signal (z-score),[25],-0.401
same,glycan array binding signal (z-score),[26],-0.047
